No constants are given. Whether binding was seen depends on the method and setting. In cells and extracts the contact can be indirect. Binding calls can cover weak binding; strength is not graded here. Sequences can lack the tags named with a protein.

In the assay the target is T1, rcsA-SmBiT (RCSA fused to the SmBiT tag) (Salmonella typhimurium) (UniProt P54698).
T1 sequence: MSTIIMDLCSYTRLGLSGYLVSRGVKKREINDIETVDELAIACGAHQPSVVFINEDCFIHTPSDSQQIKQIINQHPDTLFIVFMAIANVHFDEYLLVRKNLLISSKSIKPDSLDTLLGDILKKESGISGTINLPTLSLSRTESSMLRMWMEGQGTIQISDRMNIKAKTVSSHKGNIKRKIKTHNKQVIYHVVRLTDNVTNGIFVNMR
In words: split reporter; Lon-LgBiT and rcsA-SmBiT overexpressed in WT-VNP, ΔhtrA-VNP (AIS) and WT-VNP-htrA^OVE strains; colonies on LB plates imaged, bioluminescence flux in liquid media read on a microplate reader (n = 5).

Consider “Lon-LgBiT (LON protease fused to the LgBiT tag) (from UniProt A0A0H3NIF1) (enzyme)”, for which the binding result is “binds”.

Source of the values: publication PMC11423194.
